In the experiment the test system is OVCAR8. Kind of experiment: cell count relative to DMSO vehicle (fold change); higher = more surviving senescent cells (less killing). The note with it: senescence inducer: cisplatin 10 µM 48 h, then 6 d recovery (CP senescent), exposure time 24 h.

Structures can show the parent of a compound that is named as a salt. ± gives the standard deviation of the averaged measurements. Some of the results follow. Repeats in this data set agree poorly, so a single value says little.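 Imaging of DAPI-stained nuclei was used to count cells; those without phalloidin-stained cytoplasm were treated as dead and excluded. Every well's count was divided by the median of same-plate vehicle wells, then averaged across two replicate plates.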

In the case of `CN(C)C/C=C/C(=O)Nc1cc2c(Nc3ccc(F)c(Cl)c3)ncnc2cc1O[C@H]1CCOC1` [Afatinib], the cell count reads like this: (compound dose 1 µM) 0.635 ± 0.2; (compound dose 5 µM) 0.449 ± 0.14.
The like results for `C/C=C/C/C=C/CCC(=O)[C@H]1O[C@H]1C(N)=O` [Cerulenin] were, in that order, 1.14 ± 0.076 and 1.31 ± 0.24.
Take `CC(C)S(=O)(=O)c1ccc2nccc(Nc3ccc4scnc4c3)c2c1`: the cell count turned out to be 0.852 ± 0.26 (compound dose 1 µM) and 0.87 ± 0.16 (compound dose 5 µM).
In the case of `Oc1cc(O)c2c(c1)O[C@H](c1ccc(O)c(O)c1)[C@H](O)[C@H]2c1c(O)cc(O)c2c1O[C@H](c1ccc(O)c(O)c1)[C@H](O)[C@H]2c1c(O)cc(O)c2c1O[C@H](c1ccc(O)c(O)c1)[C@H](O)C2` [Procyanidin C1], the cell count is, setting by setting: (compound dose 1 µM) 1.17 ± 0.043; (compound dose 5 µM) 1.05 ± 0.04.
In the case of `C[N+](C)(C)CCC(=O)c1ccc2ccccc2c1`, the cell count reads like this: (compound dose 1 µM) 1.17 ± 0.043; (compound dose 5 µM) 0.983 ± 0.16.
For `C[C@H](NC(=O)C(=O)Nc1ccccc1C(C)(C)C)C(=O)N[C@@H](CC(=O)O)C(=O)COc1c(F)c(F)cc(F)c1F` [Emricasan], the cell count reads like this: (compound dose 1 µM) 1.15 ± 0.044; (compound dose 5 µM) 1.529 ± 0.0028.
On to `CN(C)CCN1CCN(CCCN2c3ccccc3Sc3ccc(C(F)(F)F)cc32)CC1` [ZZW-115 (hydrochloride)], for which the cell count (compound dose 1 µM) stood at 1.13 ± 0.1 and the cell count (compound dose 5 µM) was found to be 0.678 ± 0.045.
Regarding `CC[C@H](CO)Nc1nc(NCc2ccc(-c3ccccn3)cc2)c2ncn(C(C)C)c2n1` [(R)-CR8 (trihydrochloride)], the cell count turned out to be 0.777 ± 0.14 (compound dose 1 µM) and 0.722 ± 0.1 (compound dose 5 µM).
On the same counts, the results for `Nc1ncnc2n[nH]c(Nc3ccc(F)cc3)c12` are 0.897 ± 0.11 and 0.904 ± 0.11.
In the case of `Cn1cc(-c2ccc3c(c2)CCN3C(=O)Cc2cccc(C(F)(F)F)c2)c2c(N)ncnc21`, the cell count (compound dose 1 µM) worked out at 1.02 ± 0.085 and the cell count (compound dose 5 µM) was found to be 0.988 ± 0.23.
Consider `Oc1cccc(-c2nc(N3CCOCC3)c3oc4ncccc4c3n2)c1`, for which the cell count by setting is: (compound dose 1 µM) 0.978 ± 0.059; (compound dose 5 µM) 0.696 ± 0.086.
The like results for `Cc1cc(C)c(S(=O)(=O)Nc2cccc(C(F)(F)F)c2)c(C)c1` were, in that order, 0.633 ± 0.14 and 0.364 ± 0.18.
On the same counts, the results for `CCN(CC)CCCCNc1ncc2cc(-c3cc(OC)cc(OC)c3)c(NC(=O)NC(C)(C)C)nc2n1` are 0.91 ± 0.16 and 0.761 ± 0.021.
With `Cc1ccc(Oc2ccnc3cc(-c4cnn(C5CCNCC5)c4)ccc23)cc1`, the cell count was found to be 0.854 ± 0.023 (compound dose 1 µM) and 0.492 ± 0.1 (compound dose 5 µM).
As to `Cc1nc(-c2nc(-c3ccc(OC(F)(F)F)cc3)no2)nn1Cc1cccc(N2CCC(S(C)(=O)=O)CC2)c1`, the cell count was 0.925 ± 0.098 (compound dose 1 µM) and 1.05 ± 0.014 (compound dose 5 µM).
The like results for `C[C@H](CCC(=O)NCCS(=O)(=O)O)[C@H]1CC[C@H]2[C@@H]3[C@@H](O)C[C@@H]4C[C@H](O)CC[C@]4(C)[C@H]3CC[C@]12C` [Tauroursodeoxycholate (Sodium)] were, in that order, 1.1 ± 0.085 and 0.91 ± 0.027.
Compound `O=C1CCC(N2C(=O)c3ccccc3C2=O)C(=O)N1` (centres undefined) showed a cell count (compound dose 1 µM) of 1.18 ± 0.09 and a cell count (compound dose 5 µM) of 0.948 ± 0.098.
For the compound `Clc1ccc(C(Cn2ccnc2)OCc2csc3c(Cl)cccc23)c(Cl)c1` (centres undefined) [Sertaconazole (nitrate)], the cell count is, setting by setting: (compound dose 1 µM) 0.953 ± 0.1; (compound dose 5 µM) 0.654 ± 0.27.
On the same counts, the results for `C[C@H]1[C@H](OC(=O)CCC(=O)O)O[C@@H]2O[C@@]3(C)CC[C@H]4[C@H](C)CC[C@@H]1[C@@]24OO3` [Artesunate] are 1.09 ± 0.051 and 0.66 ± 0.48.
On to `COC(=O)[C@H](CCSC)NC(=O)c1ccc(NC[C@@H](N)CS)cc1-c1ccccc1` [FTI-277 (hydrochloride)], for which the cell count by setting is: (compound dose 1 µM) 1.18 ± 0.077; (compound dose 5 µM) 0.841 ± 0.5.
Regarding `O=C1CCC(N2Cc3c(C#CCCCNC(=O)c4ccc(NC(=O)[C@@H]5NC6(CCCCC6)[C@@]6(C(=O)Nc7cc(Cl)ccc76)[C@H]5c5cccc(Cl)c5F)cc4)cccc3C2=O)C(=O)N1` (some centres undefined), the cell count was 1.01 ± 0.064 (compound dose 1 µM) and 0.936 ± 0.0057 (compound dose 5 µM).
The like results for `C[C@H]1Oc2cc(cnc2N)-c2c(nn(C)c2C#N)CN(C)C(=O)c2ccc(F)cc21` [Lorlatinib] were, in that order, 1.06 ± 0.21 and 0.777 ± 0.57.
Turning to `O=C1NC(=O)[C@@H](c2cn3c4c(cccc24)CCC3)[C@@H]1c1c[nH]c2ccccc12` [Tivantinib], the cell count reads like this: (compound dose 1 µM) 0.832 ± 0.086; (compound dose 5 µM) 0.551 ± 0.032.
As for `CCc1cnn2c(NCc3ccc[n+]([O-])c3)cc(N3CCCC[C@H]3CCO)nc12` [Dinaciclib], the cell count is 0.706 ± 0.038 (compound dose 1 µM) and 0.612 ± 0.095 (compound dose 5 µM).
Regarding `COc1ccc(-c2cc(=O)c3c(OC)c(OC)c(OC)cc3o2)cc1OC` [Sinensetin], the cell count (compound dose 1 µM) turned out to be 1.08 ± 0.061 and the cell count (compound dose 5 µM) worked out at 1.2 ± 0.057.
In the case of `CC(C(=O)Nc1cccc(/N=C/c2c(O)ccc3ccccc23)c1)c1ccccc1` (centres undefined) [Salermide], the cell count was 1.14 ± 0.12 (compound dose 1 µM) and 1.12 ± 0.13 (compound dose 5 µM).
As to `COc1nc(N)nc2c1ncn2[C@@H]1O[C@H](CO)[C@@H](O)[C@@H]1O` [Nelarabine], the cell count is, setting by setting: (compound dose 1 µM) 1.06 ± 0.081; (compound dose 5 µM) 1.09 ± 0.022.
For `COc1cccc(-c2cc(F)ccc2[C@H]2Cc3nc(N)nc(C)c3C(=O)N2)n1`, the cell count was 0.455 ± 0.026 (compound dose 1 µM) and 0.419 ± 0.093 (compound dose 5 µM).
In the case of `O=C(Nc1cccc(Nc2ncc(Br)c(NCCc3cnc[nH]3)n2)c1)N1CCCC1`, the cell count amounted to 1.19 ± 0.06 (compound dose 1 µM) and 0.896 ± 0.21 (compound dose 5 µM).
On the same counts, the results for `Cn1cnc([N+](=O)[O-])c1Sc1ncnc2[nH]cnc12` [Azathioprine] are 1.254 ± 0.011 and 0.835 ± 0.077.
On the same counts, the results for `S=C(NCc1ccc2c(c1)OCO2)N1CCN(c2ncnc3c2oc2ccccc23)CC1` [Amuvatinib (MP-470)] are 0.959 ± 0.076 and 0.603 ± 0.26.
As to `COc1ccc(/C=C/C(=O)c2ccc(OC)c3c2OC(C)(C)C=C3)cc1` [Millepachine], the cell count by setting is: (compound dose 1 µM) 1.05 ± 0.093; (compound dose 5 µM) 0.847 ± 0.1.
On to `CN1C(=O)N[C@@H](Cc2c[nH]c3c(Cl)cccc23)C1=O` [Necrostatin 2 (S enantiomer)], for which the cell count worked out at 0.822 ± 0.044 (compound dose 1 µM) and 0.976 ± 0.09 (compound dose 5 µM).
On to `CC1(C)CCC2=C(O1)c1ccccc1C(=O)C2=O` [beta-LAPACHONE], for which the cell count was found to be 0.8645 ± 0.0035 (compound dose 1 µM) and 0.926 ± 0.22 (compound dose 5 µM).
`Cn1c(Nc2ccc(C(F)(F)F)cc2)nc2cc(Oc3ccnc(-c4ncc(C(F)(F)F)[nH]4)c3)ccc21`: the cell count is, setting by setting: (compound dose 1 µM) 1.13 ± 0.13; (compound dose 5 µM) 1.29 ± 0.052.
Turning to `CCOC(=O)[C@@]1(CCCCCCOc2ccc(Cl)cc2)CO1` [Etomoxir (sodium salt)], the cell count runs as follows: (compound dose 1 µM) 1.11 ± 0.058; (compound dose 5 µM) 0.962 ± 0.03.
`CCOC(=O)[C@@]1(CCCCCCOc2ccc(Cl)cc2)CO1` [Etomoxir]: the cell count is 1.509 ± 0.0085 (compound dose 1 µM) and 1.35 ± 0.057 (compound dose 5 µM).
In the case of `Cc1cc(O)c(-c2ccc([C@@H](C)CN(C)C)cc2)c2c1[nH]c(=O)c1sccc12` [OTS964 (hydrochloride)], the cell count is, setting by setting: (compound dose 1 µM) 0.464 ± 0.037; (compound dose 5 µM) 0.564 ± 0.02.
Consider `C[C@H](CCC(=O)O)[C@H]1CC[C@H]2[C@@H]3CC[C@@H]4C[C@H](O)CC[C@]4(C)[C@H]3CC[C@]12C` [Lithocholic acid], for which the cell count is, setting by setting: (compound dose 1 µM) 1 ± 0.082; (compound dose 5 µM) 1.09 ± 0.047.
On the same counts, the results for `CCOc1cc(C(C)(C)C)ccc1C1=N[C@@](C)(c2ccc(Cl)cc2)[C@@](C)(c2ccc(Cl)cc2)N1C(=O)N1CCN(CCCS(C)(=O)=O)CC1` are 1.18 ± 0.17 and 0.821 ± 0.043.
The like results for `CN(C)CCCN1c2ccccc2CCc2ccccc21` were, in that order, 0.889 ± 0.16 and 0.741 ± 0.1.
In the case of `COc1ccc(/C=C/C(=O)c2c(-c3ccccc3)c3ccccc3[nH]c2=O)cc1` [Ceranib-2], the cell count runs as follows: (compound dose 1 µM) 0.711 ± 0.051; (compound dose 5 µM) 0.808 ± 0.011.

Values taken from the supplement of paper PMC12462457.
